Reference: patent US12442035B2, “Compositions and methods for detecting antibiotic responsive mRNA expression signatures and uses thereof” (THE BROAD INSTITUTE, INC., priority 2018, dated 2025)
At least one compound was matched to its structure with a doubt left.

System: S. aureus clinical isolates
Assay: RNA-Seq transcriptional response to antibiotic exposure, GO term enrichment
Type: cell-based, Staphylococcus aureus
Details: 1 mg/L for 60 minutes

C[C@H]1COc2c(N3CCN(C)CC3)c(F)cc3c(=O)c(C(=O)O)cn1c23 [levofloxacin]
Transcriptional response to antibiotic exposure (S. aureus clinical isolates, by both RNA-Seq and NanoString): robust transcriptional response in susceptible clinical isolates, but no response in resistant isolates
Gene ontology enrichment of antibiotic-responsive transcripts (S. aureus): up-regulation of the SOS response
